From paper PMC10435442, “Developing multitarget coumarin based anti-breast cancer agents: synthesis and molecular modeling study” (Scientific Reports, 2023) come the findings set out here.

One series relates to MDA-MB-231. Put plainly: MTT cytotoxicity assay, MDA-MB-231. Particulars: selectivity index MCF-10A versus MDA.
Another series has as its system MCF-7. Briefly: MTT cytotoxicity assay, MCF-7. The note with it: selectivity index MCF-10A versus MCF7. (In general: Tetrazolium assays rely on reduction of a dye to a coloured formazan, in cell work by metabolically active cells.)

Molecules are shown by their SMILES.

For the compound `COc1cccc2c1C(=O)c1c(O)c3c(c(O)c1C2=O)C[C@@](O)(C(=O)CO)C[C@@H]3O[C@H]1C[C@H](N)[C@H](O)[C@H](C)O1` [Doxorubicin, reference compound], the “SI for MCF-10A (MDA)” value in the series on MDA-MB-231 amounted to 3.1. Further, the “SI for MCF-10A (MCF7)” value in the series with MCF-7 was 4.1.

Consider `COc1ccccc1C(=O)OCc1cc(=O)oc2cc(OC(C)=O)ccc12` [Compound 15, (7-Acetoxy-2-oxo-2H-chromen-4-yl)methyl 2-methoxybenzoate], for which, in the series with MDA-MB-231, the “SI for MCF-10A (MDA)” value was determined as 4.1. Besides, the “SI for MCF-10A (MCF7)” value in the series on MCF-7 worked out at 18.2.

For the compound `CC(=O)Oc1ccc2c(COC(=O)c3ccccc3)cc(=O)oc2c1` [Compound 13, (7-Acetoxy-2-oxo-2H-chromen-4-yl)methyl benzoate], the “SI for MCF-10A (MDA)” value in the series with MDA-MB-231 worked out at 15.9. Further, the “SI for MCF-10A (MCF7)” value with MCF-7 came out at 4.4.

Take `O=C(OCc1cc(=O)oc2cc(O)ccc12)c1ccccc1` [Compound 2, (7-Hydroxy-2-oxo-2H-chromen-4-yl)methyl benzoate]: in the series on MDA-MB-231, the “SI for MCF-10A (MDA)” value was 3.5. The “SI for MCF-10A (MCF7)” value with MCF-7 stood at 30.8.

For the compound `CC(=O)Oc1ccc2c(COC(=O)c3ccc(Cl)cc3)cc(=O)oc2c1` [Compound 14, (7-Acetoxy-2-oxo-2H-chromen-4-yl)methyl 4-chlorobenzoate], the “SI for MCF-10A (MCF7)” value with MCF-7 is 0.9.
